Data reported in US20210161894A1, “Compositions and Methods for Modulating Liver Endothelial Cell Fenestrations” (priority 2017, published 2021).
Some results were stated once for a whole list of compounds, not compound by compound.

Test system: isolated LSECs (liver sinusoidal endothelial cells)
Test: SEM of fenestrations in isolated LSECs from young and old mice after 30 min drug treatment (second Example 7)
Assay type: cell-based
Conditions: old mice; 7-ketocholesterol 3.6 μg/ml
Method: 3-4 and 18-24 month old male C57/B16 mice were obtained from the Animal Resource Centre in Perth, Western Australia. Animals were housed at the ANZAC Research Institute animal house on a 12 hour light/dark cycle and provided with ad libitum access to food and water. Mice were not fasted prior to euthanasia by a single intraperitoneal injection with 100 mg/kg ketamine and 10 mg/kg xylazine in saline. The study was approved by the Animal Welfare Committee of the Sydney Local Health District and was performed in accordance with the Australian Code of Practice for the care and use of animals for scientific research (AWC 2016/009). All information provided accords with the ARRIVE guidelines.
As described previously (Cogger et al. J e52698, 2015 https://dx.doi.org/10.3791/52698), mouse LSEC isolation was performed by perfusion of the liver with collagenase. Non-parenchymal cells were removed by a two-step Percoll gradient and Kupffer cells were removed by selective adherence to plastic. LSECs (seeded at 0.5×10^6 cells/cm2) were cultured (37° C., 5% CO2) in serum free RPMI-1640 for 3.5 hours before use.
Cells were treated with various agents for 30 minutes to determine effects on fenestrations. All agents were dissolved in serum-free RPMI media. All experiments were performed in triplicate for both young and old mice. […]

## CC(C)CCC[C@@H](C)[C@H]1CC[C@H]2[C@@H]3C(=O)C=C4C[C@@H](O)CC[C@]4(C)[C@H]3CC[C@]12C [7-ketocholesterol]
  peak of the frequency distribution of fenestration diameter: 101-125 nm
